{"source": "PubChem BioAssay AID1259308 – NCATS | 2017", "aim": "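Candidate targets for better recombinant protein yield in mammalian cells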 (primary screen)", "cells": "human HEK293 embryonic kidney cells stably expressing firefly luciferase (HEK-CMV-Luc2-Hygro)", "knock-down reagent": "single siRNA against human genes, 0.8 pmol siRNA per well", "timing": "72 h", "measured": "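Luciferase light (ONE-Glo) measured on one replicate plate set and viability (CellTiter-Glo) on the other, scaled to a negative control siRNA, with robust z-scores and luciferase per cell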", "scale": "total luciferase, z-score and total luciferase, % of control: higher = more reporter protein produced", "call rule": "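Active when the median/MAD z-score for overall luciferase is greater than 3; a gene was taken forward for validation with new siRNAs if at least two of its three siRNAs passed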", "meaning of the calls": "active = raised luciferase; inactive = no rise", "note": "This is one part, drawn at random, of about 59,000 reagents tested. In the full data, about 1,510 (2.6%) were called active. 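Calls use total luciferase alone and ignore viability, so some active siRNAs may act by altering cell number.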 Reagents against one gene are numbered here. Further read-outs or replicates are left out here."}
{"target": "DQX1 (GeneID 165545)", "siRNA no.": 1, "total luciferase, z-score": 0.175, "total luciferase, % of control": 85.4, "outcome": "inactive"}
{"target": "DQX1 (GeneID 165545)", "siRNA no.": 2, "total luciferase, z-score": -0.619, "total luciferase, % of control": 69.6, "outcome": "inactive"}
{"target": "DQX1 (GeneID 165545)", "siRNA no.": 3, "total luciferase, z-score": 3.16, "total luciferase, % of control": 145, "outcome": "active"}
{"target": "DDIT4L (GeneID 115265)", "siRNA no.": 1, "total luciferase, z-score": -0.351, "total luciferase, % of control": 74.9, "outcome": "inactive"}
{"target": "DDIT4L (GeneID 115265)", "siRNA no.": 2, "total luciferase, z-score": 0.68, "total luciferase, % of control": 95.4, "outcome": "inactive"}
{"target": "DDIT4L (GeneID 115265)", "siRNA no.": 3, "total luciferase, z-score": 1.28, "total luciferase, % of control": 107, "outcome": "inactive"}
{"target": "KANSL3 (GeneID 55683)", "siRNA no.": 1, "total luciferase, z-score": 0.814, "total luciferase, % of control": 98.1, "outcome": "inactive"}
{"target": "KANSL3 (GeneID 55683)", "siRNA no.": 2, "total luciferase, z-score": 0.475, "total luciferase, % of control": 91.3, "outcome": "inactive"}
{"target": "KANSL3 (GeneID 55683)", "siRNA no.": 3, "total luciferase, z-score": -1.82, "total luciferase, % of control": 45.8, "outcome": "inactive"}
{"target": "KLHL31 (GeneID 401265)", "siRNA no.": 1, "total luciferase, z-score": 0.246, "total luciferase, % of control": 86.8, "outcome": "inactive"}
{"target": "KLHL31 (GeneID 401265)", "siRNA no.": 2, "total luciferase, z-score": 1.67, "total luciferase, % of control": 115, "outcome": "inactive"}
{"target": "KLHL31 (GeneID 401265)", "siRNA no.": 3, "total luciferase, z-score": -1.27, "total luciferase, % of control": 56.6, "outcome": "inactive"}
{"target": "MRC2 (GeneID 9902)", "siRNA no.": 1, "total luciferase, z-score": 0.203, "total luciferase, % of control": 85.9, "outcome": "inactive"}
{"target": "MRC2 (GeneID 9902)", "siRNA no.": 2, "total luciferase, z-score": -0.165, "total luciferase, % of control": 78.6, "outcome": "inactive"}
{"target": "MRC2 (GeneID 9902)", "siRNA no.": 3, "total luciferase, z-score": -2.41, "total luciferase, % of control": 33.9, "outcome": "inactive"}
{"target": "STOM (GeneID 2040)", "siRNA no.": 1, "total luciferase, z-score": 0.318, "total luciferase, % of control": 88.2, "outcome": "inactive"}
{"target": "STOM (GeneID 2040)", "siRNA no.": 2, "total luciferase, z-score": -0.173, "total luciferase, % of control": 78.4, "outcome": "inactive"}
{"target": "STOM (GeneID 2040)", "siRNA no.": 3, "total luciferase, z-score": -0.638, "total luciferase, % of control": 69.2, "outcome": "inactive"}
{"target": "CYB5D1 (GeneID 124637)", "siRNA no.": 1, "total luciferase, z-score": -2.45, "total luciferase, % of control": 33.1, "outcome": "inactive"}
{"target": "CYB5D1 (GeneID 124637)", "siRNA no.": 2, "total luciferase, z-score": 0.579, "total luciferase, % of control": 93.4, "outcome": "inactive"}
{"target": "CYB5D1 (GeneID 124637)", "siRNA no.": 3, "total luciferase, z-score": 0.526, "total luciferase, % of control": 92.4, "outcome": "inactive"}
